In publication PMC4735526:
For some of these results: Tags and fusion partners may be left off the protein sequences shown. For at least one entry, the source does not settle the construct or the ends of the probe. At least one verdict rests on a figure or table, not on a statement of the authors.

Chains of the proteins cited; added tags and fusions are not shown. Residues count along the entry.
UniProt Q07666, 97-260: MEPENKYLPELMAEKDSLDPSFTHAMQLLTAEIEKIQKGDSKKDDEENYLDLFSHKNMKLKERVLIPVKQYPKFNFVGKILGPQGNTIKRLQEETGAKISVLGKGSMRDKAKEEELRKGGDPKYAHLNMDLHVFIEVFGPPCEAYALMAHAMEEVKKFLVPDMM

Tests used:
[1] = target: Sam68 QUA1-KH (UniProt Q07666); experiment: fluorescence polarization; conditions: 0.1% beta-mercaptoethanol, protein 0-200 uM, temperature not stated, recombinant protein, protein details: His tag (Ni-NTA) removed by TEV, label: fluorescein; for Kd: 10 mM Tris pH 7, 100 mM NaCl, 0.2 uM fluorescein-labelled RNA
[2] = target: T1, T-STAR QUA1-KH (UniProt O75525); experiment: fluorescence polarization; conditions: 0.1% beta-mercaptoethanol, protein 0-200 uM, temperature not stated, recombinant protein, residues 1-160, protein details: His tag (Ni-NTA) removed by TEV, label: fluorescein; for Kd: 10 mM Tris pH 7, 100 mM NaCl, 0.2 uM fluorescein-labelled RNA
T1 sequence (looked up): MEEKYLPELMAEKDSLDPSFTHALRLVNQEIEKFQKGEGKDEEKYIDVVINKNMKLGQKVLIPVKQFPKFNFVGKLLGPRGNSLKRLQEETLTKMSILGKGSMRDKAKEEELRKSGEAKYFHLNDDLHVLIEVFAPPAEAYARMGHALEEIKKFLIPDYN

## ACAAA
[1]
  Kd: > 100 µM

## AUACA
[2]
  Kd: > 100 µM
[1]
  Kd: > 100 µM

## AUAUA
[2]
  Kd: > 100 µM
[1]
  Kd: > 100 µM

## AUAAA
[2]; FP: 10 mM Tris pH 7, 100 mM NaCl, 0.2 uM fluorescein-RNA
  binding result: binds
[1]; FP: 10 mM Tris pH 7, 100 mM NaCl, 0.2 uM fluorescein-RNA, residues 97-260
  binding result: binds

## AUCAA
[2]
  Kd: > 100 µM
[1]
  Kd: > 100 µM

## AUAAC
[1]
  Kd: > 100 µM

## CCCCC
[2]
  Kd: > 100 µM
[1]
  Kd: > 100 µM

## UUUUU
[2]
  Kd: > 100 µM
[1]
  Kd: > 100 µM

## AUUAA
[2]
  Kd: > 100 µM
[1]
  Kd: > 100 µM
